# Results from the supplement of paper PMC9135407.
# Where “and” joins values, the source holds several entries; their conditions need not be identical. Equal values may be shown once. Where a name gives a salt, the structure may show the parent alone. ± gives the standard deviation of the averaged measurements. Some of the results follow. Baselines shift from plate to plate; read single values as rough.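 Assay uses culture-activated primary human stellate myofibroblasts; lipid droplet recovery indicates inactivation. Measured: proportion of Hoechst-counted cells over a plate-specific Bodipy cutoff, duplicate wells, DMSO and nortriptyline as per-plate negative and positive controls. A hit scores, control-normalized, above the plate's top-tenth-percentile nortriptyline wells or ranks among its three best wells. Final well concentrations not reported.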
# Tested on: primary human hepatic stellate cells (donor 1)
# Test: percent Bodipy-positive cells; higher = more lipid droplet accumulation
# Conditions: 48 h
# Procedure: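 Primary lipid accumulation screen in primary human hepatic stellate cell myofibroblasts (donor 1, passage 8) in 384-well plates. 100 nL of library compound was pin-transferred into 30 µL medium in duplicate, and cells were treated for 48 h. The 'Scaled' score combines distance from plate baseline, toxicity and reproducibility penalties, and is normalised to nortriptyline (positive) and DMSO (negative) controls on each plate. A hit is defined as scaled >0.85 or among the top 3 wells per plate.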
# [1] = library stock concentration: 80 uM
# [2] = library stock concentration: 400 uM
# [3] = library stock concentration: 2 mM
# [4] = library stock concentration: 3.33 mM
# [5] = library stock concentration: 10 mM
# [6] = library stock concentration: 1 mM
compound,measurement,setting,value
Cc1oncc1C(=O)Nc1ccc(C(F)(F)F)cc1 [Leflunomide],percent Bodipy-positive cells,,11.4 ± 4%
same,percent Bodipy-positive cells,[1],10.9 ± 0.72%
same,percent Bodipy-positive cells,[2],11.7 ± 3.4%
same,percent Bodipy-positive cells,[3],7.31 ± 0.94%
same,percent Bodipy-positive cells,[4],13.4 ± 7.6%
O=c1[nH]c2cc(C(F)(F)F)c(N3CCOCC3)cc2n(CP(=O)(O)O)c1=O,percent Bodipy-positive cells,[5],3.95 ± 1.1%
O=C(O)c1cccnc1Nc1cccc(C(F)(F)F)c1 [Niflumic acid],percent Bodipy-positive cells,,24.78 ± 0.044%
same,percent Bodipy-positive cells,[4],10.3 ± 5.3%
same,percent Bodipy-positive cells,library stock concentration: 7.1 mM,6.46 ± 0.64%
same,percent Bodipy-positive cells,library stock concentration: 17.7 mM,14.6 ± 3.6%
O=C(O)c1cccnc1Nc1cccc(C(F)(F)F)c1 [Niflumic Acid],percent Bodipy-positive cells,[6],8.47 ± 1.8%
CN(C)/N=N/c1[nH]cnc1C(N)=O [Dacarbazine],percent Bodipy-positive cells,,36.8 ± 1.8%
same,percent Bodipy-positive cells,[4],11.3 ± 6.8%
same,percent Bodipy-positive cells,[5],16.8 ± 9%
same,percent Bodipy-positive cells,library stock concentration: 11 mM,5.5% and 1.52%
CCCCCC[C@@H]([C@@H](C)O)n1cnc2c(N)ncnc21 [erythro-9-(2-Hydroxy-3-nonyl)adenine hydrochloride],percent Bodipy-positive cells,[5],51.8 ± 1.5%
CCCCC[C@H](O)C/C=C1/C(=O)C[C@H](O)[C@@H]1C/C=C\CCCC(=O)O [.DELTA.12-Prostaglandin D2],percent Bodipy-positive cells,[6],7.47 ± 2.7%
CC1C(=O)OC2C(O)C34C5CC(C(C)(C)C)C36C(OC(=O)C6O)OC4(C(=O)O5)C12O (centres undefined) [Ginkgolide B],percent Bodipy-positive cells,[4],7.6055 ± 0.005%
same,percent Bodipy-positive cells,[5],17.9% and 8.29%
C[N+](C)(C)CCCCCC[N+](C)(C)C [Hexamethonium dichloride],percent Bodipy-positive cells,[5],44.7 ± 10%
C[N+](C)(C)CCCCCC[N+](C)(C)C [Hexamethonium dibromide dihydrate],percent Bodipy-positive cells,,26.2 ± 1.6%
Cc1ccc(/C=C2\CNC/C(=C\c3ccc(C)cc3)C2=O)cc1.Cl,percent Bodipy-positive cells,[5],100%
CC[N+](C)(C)Cc1ccccc1Br [Bretylium tosylate],percent Bodipy-positive cells,,8.29 ± 0.84%
same,percent Bodipy-positive cells,library stock concentration: 4.8 mM,15.3 ± 3%
same,percent Bodipy-positive cells,[5],21.6 ± 16%
CCCCCCCCc1ccc(-c2ccc(C(=O)O)cc2)cc1,percent Bodipy-positive cells,[5],17.1% and 5.05%
Cn1cc(-c2ccc3ncc(Cc4ccc5ncccc5c4)n3n2)cn1,percent Bodipy-positive cells,[4],6.49 ± 1.1%
same,percent Bodipy-positive cells,[5],23.7 ± 4.3%
Cc1cc(O)c(C=O)c2c1C(=O)Oc1c(C)c(O)c3c(c1O2)C(O)OC3=O (centres undefined) [Norstictic acid],percent Bodipy-positive cells,[5],19.9 ± 4.2%
CN1C(C)(C)CCCC1(C)C [Pempidine tartrate],percent Bodipy-positive cells,,9.49 ± 0.86%
same,percent Bodipy-positive cells,[5],52.8 ± 15%
O=c1[nH]ccc2c(S(=O)(=O)N3CCCNCC3)cccc12 [HA 1100 hydrochloride],percent Bodipy-positive cells,[5],7.25 ± 1.7%
Cc1cc(NC(=O)Nc2ccc(N(C)C)cc2)c2cc(F)cc(F)c2n1,percent Bodipy-positive cells,[4],9.63 ± 0.1%
same,percent Bodipy-positive cells,[5],14.6% and 8.84%
Cc1onc(-c2c(Cl)cccc2Cl)c1C(=O)N[C@@H]1C(=O)N2[C@@H]1SC(C)(C)[C@@H]2C(=O)O,percent Bodipy-positive cells,[5],28.3 ± 0.5%
Cc1onc(-c2c(Cl)cccc2Cl)c1C(=O)N[C@@H]1C(=O)N2[C@@H]1SC(C)(C)[C@@H]2C(=O)O [Dicloxacillin sodium],percent Bodipy-positive cells,[5],9.4 ± 0.17%
Cc1onc(-c2c(Cl)cccc2Cl)c1C(=O)N[C@@H]1C(=O)N2[C@@H]1SC(C)(C)[C@@H]2C(=O)O [Dicloxacillin Sodium],percent Bodipy-positive cells,[4],7.53 ± 0.19%
same,percent Bodipy-positive cells,[5],18.9 ± 3.9%
Cc1onc(-c2c(Cl)cccc2Cl)c1C(=O)N[C@@H]1C(=O)N2[C@@H]1SC(C)(C)[C@@H]2C(=O)O [Dicloxacillin sodium salt],percent Bodipy-positive cells,,35.9 ± 19%
CC1(C)Oc2ccc(C#N)cc2[C@@H](N2CCCC2=O)[C@@H]1O [Levcromakalim],percent Bodipy-positive cells,[5],7.44 ± 0.96%
CN(C)CCCN1c2ccccc2CCc2ccccc21.Cl [Imipramine hydrochloride],percent Bodipy-positive cells,[5],96.4 ± 2.6%
O=c1cc(N2CCOCC2)oc2c(-c3cccc4c3sc3ccccc34)cccc12,percent Bodipy-positive cells,[1],7.59 ± 0.37%
same,percent Bodipy-positive cells,[2],15.2 ± 2.5%
same,percent Bodipy-positive cells,[3],9.13 ± 3.3%
same,percent Bodipy-positive cells,[4],18 ± 12%
same,percent Bodipy-positive cells,[5],13.7% and 8.03%
CC(C)(C(=O)O)c1ccc(C(O)CCCN2CCC(C(O)(c3ccccc3)c3ccccc3)CC2)cc1 (centres undefined) [Fexofenadine HCl],percent Bodipy-positive cells,,12.7 ± 6.5%
same,percent Bodipy-positive cells,[4],9.85 ± 0.43%
same,percent Bodipy-positive cells,[5],22.2 ± 1.8%
CC(C)(C(=O)O)c1ccc(C(O)CCCN2CCC(C(O)(c3ccccc3)c3ccccc3)CC2)cc1 (centres undefined),percent Bodipy-positive cells,[5],27.8 ± 4%
CC(C)(C(=O)O)c1ccc(C(O)CCCN2CCC(C(O)(c3ccccc3)c3ccccc3)CC2)cc1 (centres undefined) [Fexofenadine hydrochloride],percent Bodipy-positive cells,[5],31.7% and 10.7%
CC(N)=NCCCC[C@H](N)C(=O)O [L-N6-(1-Iminoethyl)lysine hydrochloride],percent Bodipy-positive cells,[5],39.9 ± 12%
COc1ccc([C@@H]2CC(=O)c3c(O)cc(O[C@@H]4O[C@H](CO[C@@H]5O[C@@H](C)[C@H](O)[C@@H](O)[C@H]5O)[C@@H](O)[C@H](O)[C@H]4O)cc3O2)cc1O [Hesperidin],percent Bodipy-positive cells,,25.9 ± 2.7%
same,percent Bodipy-positive cells,[4],13 ± 3.4%
same,percent Bodipy-positive cells,[5],16.4 ± 2.7%
CCCCCCCCCCCCCCCCOC[C@H](COP(=O)([O-])OCC[N+](C)(C)C)SC(C)=O [2-thio-PAF],percent Bodipy-positive cells,[6],8.58 ± 0.2%
C[N+]1(C)C[C@H](O)C[C@H]1C(=O)[O-] [Betonicine],percent Bodipy-positive cells,,8.89 ± 3.8%
CC(=O)O[C@]1(C(C)=O)CC[C@H]2[C@@H]3C[C@H](C)C4=CC(=O)C=C[C@]4(C)[C@@]3(F)[C@@H](O)C[C@@]21C [Fluorometholone Acetate],percent Bodipy-positive cells,[4],7.61 ± 1.6%
same,percent Bodipy-positive cells,[5],25.9 ± 10%

# Exported with tabs: entries from further up
compound	measurement	setting	value
O=C(O)c1cccnc1Nc1cccc(C(F)(F)F)c1 [Niflumic acid]	percent Bodipy-positive cells		24.78 ± 0.044%
CN(C)/N=N/c1[nH]cnc1C(N)=O [Dacarbazine]	percent Bodipy-positive cells		36.8 ± 1.8%
same	percent Bodipy-positive cells	[5]	16.8 ± 9%
same	percent Bodipy-positive cells	library stock concentration: 11 mM	5.5% and 1.52%
Cc1ccc(/C=C2\CNC/C(=C\c3ccc(C)cc3)C2=O)cc1.Cl	percent Bodipy-positive cells	[5]	100%
CCCCCCCCc1ccc(-c2ccc(C(=O)O)cc2)cc1	percent Bodipy-positive cells	[5]	17.1% and 5.05%
Cn1cc(-c2ccc3ncc(Cc4ccc5ncccc5c4)n3n2)cn1	percent Bodipy-positive cells	[4]	6.49 ± 1.1%
CN1C(C)(C)CCCC1(C)C [Pempidine tartrate]	percent Bodipy-positive cells		9.49 ± 0.86%
Cc1onc(-c2c(Cl)cccc2Cl)c1C(=O)N[C@@H]1C(=O)N2[C@@H]1SC(C)(C)[C@@H]2C(=O)O [Dicloxacillin Sodium]	percent Bodipy-positive cells	[4]	7.53 ± 0.19%
O=c1cc(N2CCOCC2)oc2c(-c3cccc4c3sc3ccccc34)cccc12	percent Bodipy-positive cells	[3]	9.13 ± 3.3%
CC(C)(C(=O)O)c1ccc(C(O)CCCN2CCC(C(O)(c3ccccc3)c3ccccc3)CC2)cc1 (centres undefined) [Fexofenadine HCl]	percent Bodipy-positive cells		12.7 ± 6.5%
same	percent Bodipy-positive cells	[4]	9.85 ± 0.43%
same	percent Bodipy-positive cells	[5]	22.2 ± 1.8%
CC(C)(C(=O)O)c1ccc(C(O)CCCN2CCC(C(O)(c3ccccc3)c3ccccc3)CC2)cc1 (centres undefined) [Fexofenadine hydrochloride]	percent Bodipy-positive cells	[5]	31.7% and 10.7%
COc1ccc([C@@H]2CC(=O)c3c(O)cc(O[C@@H]4O[C@H](CO[C@@H]5O[C@@H](C)[C@H](O)[C@@H](O)[C@H]5O)[C@@H](O)[C@H](O)[C@H]4O)cc3O2)cc1O [Hesperidin]	percent Bodipy-positive cells		25.9 ± 2.7%
same	percent Bodipy-positive cells	[4]	13 ± 3.4%
CC(=O)O[C@]1(C(C)=O)CC[C@H]2[C@@H]3C[C@H](C)C4=CC(=O)C=C[C@]4(C)[C@@]3(F)[C@@H](O)C[C@@]21C [Fluorometholone Acetate]	percent Bodipy-positive cells	[4]	7.61 ± 1.6%
